In patent US5262521A (SRI International, priority 1991, dated 1993):

assay: general procedure: Boc solid-phase peptide synthesis; DCC; 1-hydroxybenzotriazole added for recouplings and Boc-asparagine; settings: whole synthesis, overall

Row | Substance | isolated yield
1 | PEPTIDE1{S.L.R.R.S.S.[dA].G.[dA].N.C.[dF].R.Y.[am]}$$$$V2.0 | 42.3%
2 | PEPTIDE1{S.L.R.R.S.S.[dA].G.[dA].N.S.[dF].R.Y.[am]}$$$$V2.0 | 56%
3 | PEPTIDE1{S.L.R.R.S.S.[dA].G.[dA].N.[dS].F.R.Y.[am]}$$$$V2.0 | 37.6%
4 | PEPTIDE1{S.L.R.R.S.S.[dA].G.[dA].N.C.F.R.Y.[am]}$$$$V2.0 | 13.6%
5 | PEPTIDE1{S.L.R.R.S.S.[dA].G.[dA].N.S.F.R.Y.[am]}$$$$V2.0 | 2.4%
6 | PEPTIDE1{S.L.R.R.S.S.[dA].G.[dA].N.C.[dF].R.[am]}$$$$V2.0 | 6.0%

Some peptides are written in HELM: one residue between dots, names in brackets for other building blocks, links after the first $.
